Drug screen on melanoma cell lines: cell count

Values as published with doi:10.1371/journal.pone.0140310, rounded.

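The test systems are human melanoma cell lines, treated with a pair of drugs for 72 h and then stained and imaged. The read-out is cell count (nuclei) in % of the DMSO control; lower values mean stronger growth inhibition or killing. Concentrations were fixed for each drug; these are the higher of two levels. The file gives one value for each pair and line, without errors, so small differences may be noise.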 Only some of the drugs and lines screened are listed, without regard to their results. An entry leaves out what has no value listed here. A dash means that no value is listed here.

First drug in all entries: perifosine, 2000 nM, CCCCCCCCCCCCCCCCCCOP(=O)([O-])OC1CC[N+](C)(C)CC1

| # | Partner | 501mel | WM3619 | C32 | A2058 | COLO 792 | A375 | COLO 829 | WM451Lu | COLO 800 | A101D |
|---|---|---|---|---|---|---|---|---|---|---|---|
| 1 | CC1(C)CCC(c2ccc(Cl)cc2)=C(CN2CCN(c3ccc(C(=O)NS(=O)(=O)c4ccc(N[C@H](CCN5CCOCC5)CSc5ccccc5)c(S(=O)(=O)C(F)(F)F)c4)cc3)CC2)C1 at 2000 nM | - | 67.0 | 96.4 | 73.4 | 4.7 | 34.3 | 70.9 | 52.6 | 29.2 | 46.3 |
| 2 | CN(c1ncccc1CNc1nc(Nc2ccc3c(c2)CC(=O)N3)ncc1C(F)(F)F)S(C)(=O)=O at 400 nM | - | 113 | 94.0 | 71.9 | 90.1 | 71.3 | 74.7 | 71.1 | 143 | 86.3 |
| 3 | C=CCNC1=C2C[C@@H](C)C[C@H](OC)[C@H](O)[C@@H](C)/C=C(\C)[C@H](OC(N)=O)[C@@H](OC)/C=C\C=C(/C)C(=O)NC(=CC1=O)C2=O at 10 nM | - | 50.0 | 17.2 | 64.8 | 57.1 | 89.9 | 87.2 | 74.0 | 97.5 | 82.8 |
| 4 | CS(=O)(=O)CCNCc1ccc(-c2ccc3ncnc(Nc4ccc(OCc5cccc(F)c5)c(Cl)c4)c3c2)o1 at 4000 nM | - | 71.3 | 102 | 85.1 | 62.4 | 107 | 67.6 | 86.8 | 61.1 | 93.8 |
| 5 | Nc1cccc2c1CN(C1CCC(=O)NC1=O)C2=O (stereo not given) at 5000 nM | - | 93.9 | 97.5 | 76.1 | 106 | 97.5 | 80.4 | 111 | 103 | 106 |
| 6 | OCCn1cc(-c2cnc3nnn(Cc4ccc5ncccc5c4)c3n2)cn1 at 5000 nM | - | - | 97.9 | 57.6 | 5.1 | 61.6 | 37.8 | - | 60.9 | 62.3 |
| 7 | CCN(CC)CCNC(=O)c1c(C)[nH]c(/C=C2\C(=O)Nc3ccc(F)cc32)c1C at 2000 nM | - | 120 | 83.7 | 80.8 | 50.7 | 80.0 | 137 | 74.5 | 66.6 | 65.2 |
| 8 | Cc1cn(-c2cc(NC(=O)c3ccc(C)c(Nc4nccc(-c5cccnc5)n4)c3)cc(C(F)(F)F)c2)cn1 at 1000 nM | - | 106 | 122 | 122 | 109 | 144 | 134 | 133 | 93.4 | 110 |
| 9 | CCc1ccc(CCOc2ccc(CC3SC(=O)NC3=O)cc2)nc1 (stereo not given) at 10000 nM | 7.4 | 83.5 | 120 | 49.7 | 86.6 | 49.1 | 91.6 | 103 | 42.5 | 80.8 |
| 10 | C=C(c1ccc(C(=O)O)cc1)c1cc2c(cc1C)C(C)(C)CCC2(C)C at 10000 nM | - | 85.8 | 82.9 | 110 | 90.5 | 87.2 | 56.6 | 88.5 | 102 | 89.1 |
| 11 | O=c1[nH]nc(Sc2ncc([N+](=O)[O-])s2)n1-c1ccc2c(c1)OCCO2 at 1000 nM | - | 76.5 | 84.6 | 89.2 | 75.3 | 97.9 | 91.2 | 86.8 | 73.7 | 103 |
| 12 | OCc1c[nH]c2ccccc12 at 4000 nM | - | 129 | 93.6 | 87.0 | 114 | 82.3 | 73.4 | 110 | 60.9 | 99.4 |
| 13 | O=C(O)[C@@H]1[O][Sb](=[O])([O][Sb]2(=[O])[O][C@H]([C@H](O)CO)[C@H](O)[C@H](C(=O)O)[O]2)[O][C@H]([C@H](O)CO)[C@@H]1O (stereo not given in full) at 10000 nM | - | 142 | 120 | 89.4 | 101 | 135 | 134 | 124 | 83.7 | 113 |
| 14 | Nc1nc(F)nc2c1ncn2[C@@H]1O[C@H](CO)[C@@H](O)[C@@H]1O at 1000 nM | - | 80.1 | 97.0 | 80.7 | 64.6 | 40.2 | 112 | 92.8 | 32.9 | 95.3 |
| 15 | NC(=O)Nc1cc(-c2cccc(F)c2)sc1C(=O)N[C@H]1CCCNC1 at 100 nM | - | - | 75.3 | 86.7 | 53.4 | 47.7 | 97.3 | - | 69.3 | 67.2 |
| 16 | CO[C@@H]1[C@H](N(C)C(=O)c2ccccc2)C[C@H]2O[C@]1(C)n1c3ccccc3c3c4c(c5c6ccccc6n2c5c31)C(=O)NC4 at 400 nM | - | - | 78.2 | 51.9 | 42.4 | 59.9 | 71.2 | - | 36.9 | 49.1 |
| 17 | Cn1cncc1[C@@](N)(c1ccc(Cl)cc1)c1ccc2c(c1)c(-c1cccc(Cl)c1)cc(=O)n2C at 50 nM | - | - | 82.6 | 68.0 | 61.1 | 67.5 | 85.7 | - | 53.2 | 65.0 |
| 18 | Cn1c(Nc2ccc(C(F)(F)F)cc2)nc2cc(Oc3ccnc(-c4ncc(C(F)(F)F)[nH]4)c3)ccc21 at 400 nM | - | 36.0 | 55.4 | 70.8 | 19.8 | 56.0 | 65.8 | 53.9 | 54.6 | 54.4 |
| 19 | Cc1nc(Nc2ncc(C(=O)Nc3c(C)cccc3Cl)s2)cc(N2CCN(CCO)CC2)n1 at 20 nM | - | 92.4 | 71.1 | 67.6 | 59.5 | 63.1 | 57.3 | 70.4 | 62.3 | 78.1 |
| 20 | CCCCCCCCc1ccc(CCC(N)(CO)CO)cc1 at 10000 nM | - | 2.3 | 8.6 | 8.5 | 1.3 | 108 | 55.4 | 10.2 | 28.8 | 9.2 |
| 21 | Cn1nnc2c(C(N)=O)ncn2c1=O at 10000 nM | - | 92.8 | 122 | 45.3 | 129 | 100 | 104 | 99.6 | 106 | 100 |
| 22 | C[C@]1(c2nc3c(C(N)=O)cccc3[nH]2)CCCN1 at 7000 nM | - | 74.2 | 95.2 | 76.6 | 81.6 | 81.6 | 90.2 | 91.3 | 40.7 | 102 |
| 23 | COCC[n+]1c2c(n(Cc3cnccn3)c1C)C(=O)c1ccccc1C2=O at 2 nM | - | 80.3 | 99.9 | 21.2 | 89.5 | 101 | 69.7 | 27.4 | 60.2 | 80.6 |
| 24 | CN(C)S(=O)(=O)c1ccc2c(c1)/C(=C/c1cc3c([nH]1)CCCC3)C(=O)N2 at 2000 nM | - | 67.1 | 94.5 | 94.4 | 77.0 | 117 | 64.6 | 84.7 | 47.0 | 78.3 |
| 25 | NC1(c2ccc(-c3nc4ccn5c(=O)[nH]nc5c4cc3-c3ccccc3)cc2)CCC1 at 2000 nM | - | 75.0 | 92.8 | 77.0 | 53.0 | 97.1 | 83.3 | 84.2 | 32.3 | 81.7 |

The last 2 entries again:

* CN(C)S(=O)(=O)c1ccc2c(c1)/C(=C/c1cc3c([nH]1)CCCC3)C(=O)N2 at 2000 nM : WM3619: 67.1; C32: 94.5; A2058: 94.4; COLO 792: 77.0; A375: 117; COLO 829: 64.6; WM451Lu: 84.7; COLO 800: 47.0; A101D: 78.3
* NC1(c2ccc(-c3nc4ccn5c(=O)[nH]nc5c4cc3-c3ccccc3)cc2)CCC1 at 2000 nM : WM3619: 75.0; C32: 92.8; A2058: 77.0; COLO 792: 53.0; A375: 97.1; COLO 829: 83.3; WM451Lu: 84.2; COLO 800: 32.3; A101D: 81.7